Assay results: PubChem BioAssay AID504834 (National Center for Advancing Translational Sciences (NCATS), 2011)
About 22,000 (6.9%) of roughly 320,000 compounds were called active. Inconclusive means that the source gave no clear call. Such entries were picked first, then a sample of the others. Calls follow the shape of the dose curve; as a rule, active = well fitted inhibition curve with a large enough effect; inconclusive = small, poorly fitted or top-dose-only effect, or another doubt; inactive = no such curve, though single readings can be large or run the other way. Where the call is inconclusive, the potency comes from a doubtful curve fit.

Experiment: Primary qHTS for delayed death inhibitors of the malarial parasite plastid, 96 hour incubation
Settings: P. falciparum luciferase reporter growth; series mostly up to 28.7 µM
Procedure, shortened: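 Luminescence readout: decreased luciferase signal marks inhibited growth of reporter-expressing P. falciparum in infected red cells (2% hematocrit, 0.05% parasitemia final), exposed to compound two generations (96 h, 37 C, 5% CO2).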
Potency is read from the fitted curve at half-maximal effect.

Compound | Potency
O=C(CCc1ccccc1)N1CCN(S(=O)(=O)c2cccs2)CC1 | inactive
CCOC(=O)CNS(=O)(=O)c1ccc(C(=O)O)cc1 | inconclusive: 13.1 µM [inhibitor, single point]
O=S(=O)(NC1CC1)c1ccc(S(=O)(=O)N2CCC3(CC2)OCCO3)cc1 | inconclusive: 1.65 µM [inhibitor, full curve]
Cc1ccc(-n2c(C)nn(CC3CC3)c2=O)cc1 | inconclusive: 1.17 µM [inhibitor, partial curve, poor fit]
CN(Cc1ccccc1)C(=O)CN1CCN(C(c2ccccc2)c2ccccc2)CC1 | active: 10.4 µM
Cc1cc(C)c(C(=O)COC(=O)c2cc([N+](=O)[O-])ccc2NCCO)cc1C | inconclusive: 18.5 µM [inhibitor, single point]
COC(=O)c1cc(Br)c(=O)n(CCN2CCCC2)c1 | inconclusive: 0.0928 µM [inhibitor, full curve, poor fit]
S=C(NCCN1CCOCC1)N1CCN(c2cccc(Cl)c2)CC1 | inconclusive: 3.29 µM [inhibitor, full curve]
COc1ccc(N(CC(=O)NCc2ccco2)S(=O)(=O)c2ccc(OC)c(OC)c2)cc1 | active: 14.7 µM
O=C(c1nn2c(C(F)(F)F)cc(-c3ccco3)nc2c1Br)N1CCCc2ccccc21 | inactive
Nc1nc(=S)c2ncn([C@@H]3O[C@H](CO)[C@@H](O)[C@H]3O)c2[nH]1 | inconclusive: 2.94 µM [inhibitor, single point]
Cc1ccc(C(=O)Nc2nc(=O)n(C)s2)cc1 | inactive
CN(C)C1(CNC(=O)CC(NC(=O)c2ccccc2Cl)c2ccccc2)CCCCC1 (centres undefined) | inconclusive: 2.08 µM [inhibitor, full curve]
CC(C)[C@H](NC(=O)c1ccco1)C(=O)NCc1ccccc1 | inactive
Cc1nc2ccccc2c2c1C(=O)N(c1ccc(C(=O)O)cc1)C2=O | inconclusive: 1.47 µM [inhibitor, single point]
Cc1csc(NC(=O)C2CCCN2C(=O)OCC(C)C)n1 (centres undefined) | inconclusive: 4.65 µM [inhibitor, full curve, poor fit]
CCOC(=O)C(=NC(C)(C)C)NNc1cc(Cl)ccc1Cl | active: 9.28 µM
Cc1onc(-c2c(F)cccc2Cl)c1C(=O)N1CCN(c2ncc(Br)cn2)CC1 | inconclusive: 16.5 µM [inhibitor, partial curve, poor fit]
O=C(NCC(c1ccco1)N1CCCC1)c1ccc(S(=O)(=O)Nc2ccc(F)cc2)cc1 (centres undefined) | inconclusive: 10.4 µM [inhibitor, single point]
COC(=O)c1cccc(NC(=O)CCNC(=O)c2ccco2)c1 | inactive
CC(C)(C)n1nnnc1CN1CCC(NC(=O)NC2CCCCC2)CC1 | inactive
CCc1nc(C)ccc1OCC(=O)NCCCN(C)C | inactive
CCc1ccc(NC(=O)Cn2c(=O)oc3cc(S(=O)(=O)N4CCOCC4)ccc32)cc1 | inconclusive: 16.5 µM [inhibitor, partial curve, poor fit]

Compounds listed so far that contain a COOH group (two):
Compound | Potency
CCOC(=O)CNS(=O)(=O)c1ccc(C(=O)O)cc1 | inconclusive: 13.1 µM [inhibitor, single point]
Cc1nc2ccccc2c2c1C(=O)N(c1ccc(C(=O)O)cc1)C2=O | inconclusive: 1.47 µM [inhibitor, single point]

Later entries:

Compound | Potency
COc1cccc(C2C([N+](=O)[O-])=C(N)Oc3cc(C)oc(=O)c32)c1 (centres undefined) | inactive
CCc1ccc2nc3nc(C)cc(C)c3c(N)c2c1 | active: 1.65 µM
O=C(CN1C(=O)c2cccc3cccc1c23)Nc1cccnc1 | inconclusive: 3.7 µM [inhibitor, full curve]
CCN(C(=O)COC(=O)c1ccc(O)cc1O)c1c(N)n(Cc2ccccc2)c(=O)[nH]c1=O | inconclusive: 13.1 µM [inhibitor, single point]
CC(C)(C)CN1C(=O)C(=O)NC[C@H]1Cc1cccc2ccccc12 | inconclusive: 4.65 µM [inhibitor, partial curve]
Cc1ccc(S(=O)(=O)c2c(N)n(-c3ccccc3)c3nc4ccccc4nc23)cc1 | inconclusive: 13.1 µM [inhibitor, single point]
CCC(C)(C)n1nnnc1C(C(C)C)N(CCN1CCOCC1)Cc1cc2cccc(C)c2[nH]c1=O (centres undefined) | active: 13.1 µM
O=C(NCc1cccnc1)c1ccc2c(c1)N(Cc1ccccc1)CCS2 | inconclusive: 9.28 µM [inhibitor, single point]
COc1ccc(CCNC(=O)C2(C)CCC(=O)N2Cc2ccc(F)cc2Cl)cc1OC (centres undefined) | inconclusive: 7.38 µM [inhibitor, partial curve]
Cc1ccccc1-[n+]1c(-c2ccccc2)cc(-c2ccccc2)cc1-c1ccccc1 | active: 0.185 µM
CCCc1c(C)nn(-c2ncccc2[N+](=O)[O-])c1C | inactive
CN(Cc1ccco1)C(=O)Cn1cc(S(=O)(=O)N2CCCC2)c(S(=O)(=O)N2CCCC2)c1 | inconclusive: 18.5 µM [inhibitor, single point]
CCCCNC(=O)C(c1ccc(OCC(=O)OC)c(C(=O)OC)c1)N(CCOC)C(=O)CCCCCN1C(=O)NC(c2ccc(-c3ccccc3)cc2)C(C(=O)OCc2ccccc2)=C1C (centres undefined) | active: 1.65 µM
Cc1n[nH]c(C)c1S(=O)(=O)N1CCCC(C(=O)Nc2nccs2)C1 (centres undefined) | inconclusive: 0.208 µM [inhibitor, full curve, poor fit]
Cc1cc(Br)ccc1OCC(=O)NNC(=O)Cc1ccccc1 | inactive
Cc1cccc(NS(=O)(=O)c2cccs2)c1 | inactive
Cn1c(CC(=O)Nc2ccc(F)cc2)c(Sc2ccccc2)c2ccccc21 | inconclusive: 18.5 µM [inhibitor, single point]
O=S(=O)(Cc1ccccc1)c1ccccc1-c1nnc(-c2ccccc2)o1 | inconclusive: 2.08 µM [inhibitor, partial curve, poor fit]
CC(C)Cc1nc(N2CCCCC2)c(C#N)c2c1CCC2 | active: 10.4 µM
CCN(CC)S(=O)(=O)c1cc(NC(=O)COC(=O)c2ccc(NC(=O)CC#N)cc2)ccc1C | inconclusive: 11.7 µM [inhibitor, single point]
CC(C)(C)OC(=O)N1CCC(C(=O)N2CCCCCC2)CC1 | active: 11.7 µM
O=C(COC(=O)c1n[nH]c2ccccc12)Nc1ccc([N+](=O)[O-])cc1 | inactive
O=C(c1ccc(Cl)cc1)C1C2C(=O)N(c3ccccc3)C(=O)C2C2CCCN21 (centres undefined) | active: 14.7 µM

Compound | Potency
O=C(NC1CCCCC1)C1CCCN(S(=O)(=O)c2ccc(Br)s2)C1 (centres undefined) | inconclusive: 10.4 µM [inhibitor, single point]
O=C(COc1coc(CN2CCc3ccccc32)cc1=O)Nc1cccc(F)c1 | inactive
COc1ccc(C(=O)NCc2nnc(SCC(=O)N3CCC(C)CC3)o2)cc1OC | inconclusive: 16.5 µM [inhibitor, partial curve, poor fit]
CCOC(=O)C1CCN(C(c2cc(OC)c(OC)c(OC)c2)c2sc3nc(C)nn3c2O)CC1 (centres undefined) | inconclusive: 13.1 µM [inhibitor, single point]
CC(=O)NC1C(=O)SC1(C)C (centres undefined) | inactive
Cc1ccc(NC(=S)NC(=O)c2c(-c3ccccc3Cl)noc2C)cc1 | inconclusive: 7.38 µM [inhibitor, partial curve, poor fit]
O=C(COC(=O)c1cc(=O)[nH]c2ccccc12)NCc1cccc(Cl)c1 | inactive
CCOC(=O)C1CCN(C(=O)C2(NC(=O)Nc3ccccc3Cl)CCCCC2)CC1 | inconclusive: 2.33 µM [inhibitor, full curve]
CCc1ccccc1NC(=O)CCCN1C(=O)c2cccnc2C1=O | inconclusive: 7.38 µM [inhibitor, partial curve]
COc1ccc(CN2CN(S(=O)(=O)c3cccs3)c3nc4ccccc4nc32)cc1 | inconclusive: 4.65 µM [inhibitor, partial curve, poor fit]
CCn1c(SCc2cccc(C(=O)O)c2)nnc1-c1ccc(Cl)cc1 | inconclusive: 11.7 µM [inhibitor, single point]
Cc1cccc(C)c1NC(=O)CS(=O)CC(=O)Nc1ccc(F)cc1F (centres undefined) | inactive
Cc1cccc(N(C(=O)Cn2nnc3ccccc32)C(C(=O)NC(C)(C)C)c2ccsc2)c1 (centres undefined) | active: 3.29 µM
COc1ccc(C(=O)NCC(=O)N/N=C/C=C/c2ccccc2)cc1OC | inconclusive: 18.5 µM [inhibitor, single point]
CCc1ccccc1NC(=O)CNC(=O)c1cccc(S(=O)(=O)N2CCN(Cc3ccccc3)CC2)c1 | inactive
O=C(COC(=O)C1CCCN1C(=O)C12CC3CC(CC(C3)C1)C2)c1ccc(Br)cc1 (centres undefined) | inconclusive: 13.1 µM [inhibitor, single point]
CCOC(=O)[C@H]1[C@H]2COc3cc(OC)ccc3[C@@H]2N2C(=O)CN(Cc3ccc(C)cc3)C(=O)[C@@]12C | active: 2.62 µM
CCc1cc2c3c(c1)C1(C(=O)N3C(C)(C)C=C2C)C(C#N)=C(N)Oc2[nH]c(=O)[nH]c(=O)c21 (centres undefined) | inactive
Cc1ccccc1OCc1nc(-c2ccc(NC(=O)c3ccc4c(c3)OCO4)cc2)no1 | inactive
COc1cc(CN2CCN(C(=O)CC(C)C)CC2)cc(OC)c1O | inconclusive: 18.5 µM [inhibitor, single point]
Cc1ccc(S(=O)(=O)N(C)c2ccccc2C(=O)NC2CCCC2)cc1 | inconclusive: 2.33 µM [inhibitor, partial curve, poor fit]
Cc1onc(-c2ccccc2)c1-c1ccnc(N)n1 | inconclusive: 2.33 µM [inhibitor, partial curve, poor fit]
CCC1=[N+](CC(=O)c2ccc(Br)cc2)CCn2c(C)ccc21 | inconclusive: 10.4 µM [inhibitor, single point]

Single entries from the list.
Value of Cc1onc(-c2ccccc2)c1-c1ccnc(N)n1 under Potency: inconclusive: 2.33 µM [inhibitor, partial curve, poor fit]
Value of COc1ccc(C(=O)NCc2nnc(SCC(=O)N3CCC(C)CC3)o2)cc1OC under Potency: inconclusive: 16.5 µM [inhibitor, partial curve, poor fit]
